Test results reported in article PMC12137140, “The fast-evolving FIKK kinase family of Plasmodium falciparum can be inhibited by a single compound” (Nature Microbiology, 2025).
No constants are given. Whether binding was seen depends on the method and setting. Binding can be weak; no strength is given.

B1: Nb2G9 (VHH)
VHH: QVQLVESGGGSVQAGGSLRLSCAASGRTFSSYSMAWFRQAPGKERENVAVISWSGSTSYYAESVKGRFTISRDNAKNTVYLQMNSLKPEDTAVYYCAAGPRTTPQAMGAVEYDYWGQGTQVTVSS
B2: Nb9F10 (VHH)
VHH: QEQLVESGGGLVQAGGSLTLSGASSGGTFETYAMGWFRQAPGKEREFAAAVSWSGGSAHYADSVKGRFTISRDKVKNTVYLQMNSLKPEDTAVYYCAADRSYGSSWYHYPEDALDAWGQGTQVTVSS

Target: PfFIKK13^149–561_D379N (P. falciparum)
Experiment: crystal structure; PfFIKK13 149–561 D379N with Nb2G9, Nb9F10 and ATPγS; sitting drops, vapour diffusion, 20 °C; space group P21; both purified

| Binder | binding |
| --- | --- |
| B1 | binds |
| B2 | binds |
